Taken from: PubChem BioAssay AID1259425 (University of Nebraska Medical Center, 2018)
This is a random part of about 14,000 reagents tested. Further read-outs or replicates are left out here. Not stated in the record: the time to read-out.

- Assay: 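Find knockdowns that reproduce the gene expression pattern seen when KSR1 is lost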 (primary screen)
- Cell system: HCT116 human colon cancer cells
- Reagent: siRNA pool against human genes, 50 nM siRNA
- Measurement: 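mRNA of six signature genes measured together by branched-DNA assay after 50 nM siRNA pool, blank removed, divided by geometric mean of two housekeeping genes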
- Scale: BNIP3L mRNA: higher = more BNIP3L transcript after knockdown; NDRG1 mRNA: higher = more NDRG1 transcript after knockdown; BNIP3 mRNA: higher = more BNIP3 transcript after knockdown

Gene	BNIP3L mRNA, set 1	NDRG1 mRNA, set 1	BNIP3 mRNA, set 1
VPS33A (GeneID 65082)	0.0909	0.112	0.251
TGIF2LX (GeneID 90316)	0.105	0.25	0.463
SYNE2 (GeneID 23224)	0.11	0.225	0.146
TAF1C (GeneID 9013)	0.124	0.216	0.209
ETS1 (GeneID 2113)	0.161	0.111	0.342
RASSF9 (GeneID 9182)	0.0898	0.079	0.33
GP1BB (GeneID 2812)	0.127	0.267	0.208
ZNF75A (GeneID 7627)	0.134	0.214	0.259
C8orf44 (GeneID 56260)	0.0901	0.446	0.344
MARCKS (GeneID 4082)	0.13	1.78	0.391
ULBP2 (GeneID 80328)	0.136	0.365	0.309
KRT5 (GeneID 3852)	0.0533	0.307	0.15
HSPD1 (GeneID 3329)	0.125	0.313	0.321
SORCS3 (GeneID 22986)	0.176	0.243	0.338
NKAIN1 (GeneID 79570)	0.0879	0.409	0.313
CYP11B1 (GeneID 1584)	0.0453	0.285	0.209
NUMA1 (GeneID 4926)	0.118	0.296	0.489
TBC1D1 (GeneID 23216)	0.127	0.125	0.361
AKTIP (GeneID 64400)	0.0524	0.0959	0.17
NPAS2 (GeneID 4862)	0.145	0.181	0.326
NES (GeneID 10763)	0.121	0.258	0.335
LZTS1 (GeneID 11178)	0.128	0.086	0.153
SLC7A6 (GeneID 9057)	0.167	0.122	0.228
CCNH (GeneID 902)	0.212	0.914	0.332
FCN3 (GeneID 8547)	0.106	0.373	0.351
LPIN1 (GeneID 23175)	0.147	0.136	0.312
NLRP2 (GeneID 55655)	0.0699	0.0413	0.321
E2F3 (GeneID 1871)	0.0826	0.151	0.219
ARL8B (GeneID 55207)	0.11	0.102	0.191
FZD1 (GeneID 8321)	0.146	0.201	0.402
MYH4 (GeneID 4622)	0.135	0.622	0.259
PGA5 (GeneID 5222)	0.218	0.422	0.272
BEX1 (GeneID 55859)	0.107	0.248	0.378
SMIM8 (GeneID 57150)	0.0983	0.118	0.254
